# Experimental data taken from PubChem BioAssay AID2685 (National Center for Advancing Translational Sciences (NCATS), 2010).
# Some of the results follow. Shown are side measurements of this screen, not its main read-out; they come without a call. Most of these compounds were active or inconclusive in the main read-out, so they are no random draw. Potencies come from curve fits of mixed quality, noted in brackets.
# Test: qHTS Assay for Lipid Storage Modulators in Drosophila S3 Cells;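 as to cell number change: cells counted by Cell Tracker Red CMTPX staining in the red channel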
# Details: BODIPY lipid droplet fluorescence, 18-24 h; for cell number change: measured here: cell count max response, cells fed with added oleic acid
# Method in brief: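 Laser-scanning cytometry quantifies lipid droplet accumulation (500–530 nm total intensity; droplet/cell object ratio) in oleic acid-fed (400 uM added) Drosophila S3 cells treated with a concentration series. 20 uM Triacsin C defined 100% inhibition.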
# [1] = measured here: lipid fluorescence (Fed channel) AC50, cells fed with added oleic acid
# [2] = measured here: cell number channel AC50, cells fed with added oleic acid
SMILES,cell number change,AC50 [1],AC50 [2]
CN1CCN(C(=O)c2cccc(S(=O)(=O)N3CCCCC3)c2)CC1,-5.82%,"164 nM [falling, full curve, poor fit]",
Cc1ccnc(NC(=O)CCC(=O)N(CC(=O)NC(C)(C)C)Cc2ccc3c(c2)OCO3)c1,,"164 nM [falling, full curve]",
O=[N+]([O-])c1ccc(OC/C=C2\Oc3ccc([N+](=O)[O-])cc3C2N2CCOCC2)cc1 (stereo not drawn),,,"146 nM [rising, full curve, poor fit]"
CCC(C)n1c(C)nc2c(c1=O)c1nc3ccccc3nc1n2-c1ccc2c(c1)OCCO2 (stereo not drawn),7.51%,"1840 nM [rising, partial curve, poor fit]",
COc1ccc(NC(=O)CSc2nnc3ccc(-c4cccnc4)nn23)cc1,,"164 nM [rising, full curve, poor fit]",
COCCSc1ccccc1C(=O)Nc1ccncc1,10.3%,"2910 nM [rising, partial curve]",
CCN(Cc1ccc(N(C)C)cc1)C(C)C(=O)Nc1ccc(S(=O)(=O)N2CCCC2)cc1 (stereo not drawn),-32%,"14600 nM [falling, partial curve, poor fit]",
CCOC(=O)Cc1csc(N/C(=N/S(=O)(=O)c2ccc(Cl)cc2)c2ccccc2)n1,50%,,"29100 nM [rising, single point]"
C#CCSc1nc2ccccc2n1C(=O)c1ccc(S(=O)(=O)N2CCCCC2)cc1,,"29100 nM [falling, single point]",
CCOc1cc(CNn2nnnc2N)cc(Cl)c1OCC(=O)NC(C)(C)C,5.44%,,"731 nM [falling, single point]"
O=c1oc(-c2ccc(Br)o2)nc2ccccc12,-12.8%,,"4.61 nM [falling, full curve, poor fit]"
O=C(NC(=O)c1ccccc1)OCC(F)(F)F,-24.8%,"3660 nM [falling, full curve]","184 nM [falling, full curve, poor fit]"
CCO[C@H]1OC(C(=O)N2CCN(Cc3ccc4c(c3)OCO4)CC2)=C[C@@H](c2ccc(Br)cc2)[C@@H]1CCCO,-24.4%,"20600 nM [falling, single point]",
O=C(NC1CCCC1)c1sc(=S)n2c1[nH]c(=O)c1ccccc12,-12.2%,"5.17 nM [falling, full curve, poor fit]",
CN(C)S(=O)(=O)N(CC(=O)Nc1cccc(F)c1)c1ccccc1,-10.2%,,
COc1ccc(NC(=O)C2C(=O)NC3(C)CC2c2ccccc2O3)cc1 (stereo not drawn),-2.29%,"5.8 nM [falling, full curve, poor fit]","5.8 nM [falling, full curve, poor fit]"
CCOc1ccc2nc(NCCNC(=O)C3CC3)c(C)cc2c1,36.1%,"580 nM [rising, partial curve]","1300 nM [rising, full curve]"
CCOC(=O)c1c(C)[nH]c(C)c1S(=O)(=O)N(C)CC(=O)N1CCN(c2ccc(OC)cc2)CC1,-21.1%,"29100 nM [falling, single point]",
COc1cccc2cc(C(=O)N3CCN(c4ccccc4F)CC3)c(=O)oc12,121%,,"29100 nM [rising, single point]"

# Entries of single compounds as entered above.
# `CN(C)S(=O)(=O)N(CC(=O)Nc1cccc(F)c1)c1ccccc1` is entered as cell number change: -10.2%
# `CCOc1cc(CNn2nnnc2N)cc(Cl)c1OCC(=O)NC(C)(C)C` is entered as cell number change: 5.44%; AC50 [2]: 731 nM [falling, single point]

# Later entries.

SMILES,cell number change,AC50 [1],AC50 [2]
COc1ccc(C2SCC(=O)N2CCc2ccc(OC)c(OC)c2)cc1 (stereo not drawn),-49.5%,"32600 nM [falling, single point]","20600 nM [falling, single point]"
NC(CO)C(=O)NNCc1ccc(O)c(O)c1O (stereo not drawn),2.71%,"820 nM [rising, full curve, poor fit]",
CCn1nnc2cc(C(=O)NCCc3ccccc3F)ccc21,25%,"29100 nM [falling, single point]",
Cc1ccc(C(CC(=O)O)Nc2nc(N3CCCCC3)nc(N3CCCCC3)n2)cc1 (stereo not drawn),-30.8%,"731 nM [rising, full curve]","32600 nM [falling, single point]"
CC(=O)c1c[nH]c(C(=O)NC2CCCCCC2)c1,,"820 nM [rising, full curve, poor fit]",
CCOC(=O)c1c(-c2ccccc2)csc1NC(=S)NC,-50.4%,"461 nM [falling, full curve, poor fit]","6510 nM [falling, partial curve, poor fit]"
N#Cc1cc2sc3nnc(-c4ccncc4)n3c2cc1C#N,-12%,"29100 nM [falling, single point]",
Cc1nn(C)c(C)c1NC(=O)Nc1cccc(C(F)(F)F)c1,-13.6%,"2910 nM [rising, partial curve, poor fit]",
CCCN1C(=S)c2ccccc2C1c1ccccc1 (stereo not drawn),-19%,"6510 nM [falling, partial curve]",
COc1cccc(C(=O)Nc2cc(C)nn2-c2ccccc2)c1OC,5.13%,"5170 nM [falling, single point]",
CCOc1ccc(C(=O)Nc2cccc3ncccc23)cc1Cl,18.8%,"580 nM [rising, single point]",
COc1cccc(OC)c1C(=O)NC(=S)Nc1ccc2c(c1)Cc1ccccc1-2,-15.3%,"2060 nM [falling, full curve]","6510 nM [falling, single point]"
CN1CCN(C(=O)c2c(O)c3cccc4c3n(c2=O)CC4)CC1,30.5%,,"411 nM [rising, partial curve, poor fit]"
CCN(Cc1cc2cccc(C)c2[nH]c1=O)C(=O)c1ccccc1OC,39.7%,"9200 nM [rising, partial curve]","4.61 nM [rising, full curve, poor fit]"
O=C(c1cccnc1)N1CCN(S(=O)(=O)c2cccc(Cl)c2)CC1,21.5%,"2310 nM [rising, partial curve, poor fit]","2060 nM [rising, full curve, poor fit]"
CC1CCCCC1NC(=O)c1ccc(S(=O)(=O)N2CCN(C)CC2)cc1 (stereo not drawn),10.1%,"2910 nM [rising, full curve, poor fit]",
Cc1oc(-c2ccc(F)cc2)nc1CN1CCCC(C(=O)N2CCOCC2)C1 (stereo not drawn),21%,"29100 nM [rising, single point]",
CNC(=O)c1ccc(OC2CSC2)cc1,,"103 nM [falling, full curve, poor fit]",
COC(=O)c1cc(COc2ccc3oc(C)c(C(=O)OC)c3c2)c(C)o1,8.43%,"29100 nM [rising, single point]",

SMILES,cell number change,AC50 [1],AC50 [2]
COc1ccccc1NC(=O)CN1CCN(CC(=O)Nc2cc(C)ccc2OC)CC1,8.33%,,
CC1=C(C(=O)OCCNC(=O)c2ccccc2O)C(c2ccccc2[N+](=O)[O-])C(C(=O)OCC2CCCO2)=C(C)N1 (stereo not drawn),-48.5%,"25900 nM [falling, single point]","32600 nM [falling, single point]"
COc1ccccc1NC(=O)C(C)OC(=O)CN1C(=O)C2CC=CCC2C1=O (stereo not drawn),31.6%,,
C[C@H]1COc2c(N3CCN(C)CC3)c(F)cc3c(=O)c(C(=O)O)cn1c23,-32%,"2310 nM [falling, full curve]","2310 nM [falling, full curve]"
CC1CCCN(S(=O)(=O)c2ccc(NC(=O)CN3C(=O)NC(C)(c4ccccc4)C3=O)cc2)C1 (stereo not drawn),,,"6510 nM [rising, single point]"
CN(C)CCNC(=O)c1cc2c(=O)n(C)c3ccccc3c2n1C,3.81%,"517 nM [falling, single point]",
C/C(CC(=O)NC(C)c1ccccc1)=N\NC(N)=S (stereo not drawn),-8.11%,,"6510 nM [rising, single point]"
CC(C)Cc1ccc(C(C)C(=O)OCC(=O)c2c[nH]c3ccccc23)cc1 (stereo not drawn),-66.6%,"651 nM [falling, partial curve, poor fit]","18400 nM [falling, partial curve]"
CCC(NC(=O)OC(C)(C)C)C(=O)Oc1ccc2c3c(c(=O)oc2c1)CCC3 (stereo not drawn),16.2%,"6510 nM [falling, single point]",
COc1cccc(NC(=O)CN(C)C(=O)CNC(=O)c2sc3ccccc3c2Cl)c1,3.07%,,
CC(=O)Nc1ccc(S(=O)(=O)NNC(=O)c2ccc(S(=O)(=O)N3CCCCC3)cc2)cc1,22.1%,"580 nM [falling, single point]",
CCn1c(SCC(=O)N2CCCC(C)C2)nc2c1c(=O)n(C)c(=O)n2C (stereo not drawn),7.89%,"35500 nM [rising, single point]",
CCCCC(CC)C(=O)Nc1ccccc1C(=O)NC(C)C (stereo not drawn),7.5%,"5.17 nM [rising, full curve, poor fit]",
CC(=O)Nc1ccc(Oc2nc(-c3ccccn3)nc3ccccc23)cc1,-23.3%,"23100 nM [falling, single point]",
COc1ccccc1CNC(=O)N1CCN(c2ccccc2)CC1,17.1%,,
Cc1ccc(OCCNC(=O)CCC(=O)N2CCOCC2)cc1,14.7%,"8200 nM [rising, partial curve]",
CCCN(CC1CC1)C(=O)CSc1nnc(-c2cc(-c3cccs3)nc3ccccc23)o1,75.4%,,"18400 nM [rising, single point]"
C=CCc1c(C)nc(C)nc1N/N=C/c1ccccc1,59.4%,"3260 nM [rising, single point]","13000 nM [rising, partial curve]"

# Some of these compounds in order of count of non-hydrogen atoms, high to low:
SMILES,cell number change,AC50 [1],AC50 [2]
Cc1oc(-c2ccc(F)cc2)nc1CN1CCCC(C(=O)N2CCOCC2)C1 (stereo not drawn),21%,"29100 nM [rising, single point]",
COC(=O)c1cc(COc2ccc3oc(C)c(C(=O)OC)c3c2)c(C)o1,8.43%,"29100 nM [rising, single point]",
CN1CCN(C(=O)c2c(O)c3cccc4c3n(c2=O)CC4)CC1,30.5%,,"411 nM [rising, partial curve, poor fit]"
